In patent publication US9643928B2, “Crystalline forms of {[1-cyano-5-(4-chlorophenoxy)-4-hydroxy-isoquinoline-3-carbonyl]-amino}-acetic acid” (FIBROGEN, INC., priority 2013, dated 2017):
Some results were stated once for a whole list of compounds, not compound by compound.

Test: Relative stability of Form 1 and Form 2 (summary of Example 3)
Assay type: physicochemical
From the text: The relative stability of Form 1 and Form 2 have been studied under different conditions (see Example 3).

Row | SMILES | temperature up to which the form is stable [°C]
1 | N#Cc1nc(C(=O)NCC(=O)O)c(O)c2c(Oc3ccc(Cl)cc3)cccc12 [Form 1, {[1-cyano-5-(4-chlorophenoxy)-4-hydroxy-isoquinoline-3-carbonyl]-amino}-acetic acid] | ≥ 200
2 | N#Cc1nc(C(=O)NCC(=O)O)c(O)c2c(Oc3ccc(Cl)cc3)cccc12 [Form 2, {[1-cyano-5-(4-chlorophenoxy)-4-hydroxy-isoquinoline-3-carbonyl]-amino}-acetic acid] | ≥ 200
